Two molecules from ChEMBL document CHEMBL4118225, “Development, Optimization, and Structure-Activity Relationships of Covalent-Reversible JAK3 Inhibitors Based on a Tricyclic Imidazo[5,4- d]pyrrolo[2,3- b]pyridine Scaffold” (J Med Chem, 2018) can be followed below.

Amino acid sequences for entries named in this document (tags omitted). A change or cut given only in a name is not applied to a line headed by its entry.
UniProt O60674: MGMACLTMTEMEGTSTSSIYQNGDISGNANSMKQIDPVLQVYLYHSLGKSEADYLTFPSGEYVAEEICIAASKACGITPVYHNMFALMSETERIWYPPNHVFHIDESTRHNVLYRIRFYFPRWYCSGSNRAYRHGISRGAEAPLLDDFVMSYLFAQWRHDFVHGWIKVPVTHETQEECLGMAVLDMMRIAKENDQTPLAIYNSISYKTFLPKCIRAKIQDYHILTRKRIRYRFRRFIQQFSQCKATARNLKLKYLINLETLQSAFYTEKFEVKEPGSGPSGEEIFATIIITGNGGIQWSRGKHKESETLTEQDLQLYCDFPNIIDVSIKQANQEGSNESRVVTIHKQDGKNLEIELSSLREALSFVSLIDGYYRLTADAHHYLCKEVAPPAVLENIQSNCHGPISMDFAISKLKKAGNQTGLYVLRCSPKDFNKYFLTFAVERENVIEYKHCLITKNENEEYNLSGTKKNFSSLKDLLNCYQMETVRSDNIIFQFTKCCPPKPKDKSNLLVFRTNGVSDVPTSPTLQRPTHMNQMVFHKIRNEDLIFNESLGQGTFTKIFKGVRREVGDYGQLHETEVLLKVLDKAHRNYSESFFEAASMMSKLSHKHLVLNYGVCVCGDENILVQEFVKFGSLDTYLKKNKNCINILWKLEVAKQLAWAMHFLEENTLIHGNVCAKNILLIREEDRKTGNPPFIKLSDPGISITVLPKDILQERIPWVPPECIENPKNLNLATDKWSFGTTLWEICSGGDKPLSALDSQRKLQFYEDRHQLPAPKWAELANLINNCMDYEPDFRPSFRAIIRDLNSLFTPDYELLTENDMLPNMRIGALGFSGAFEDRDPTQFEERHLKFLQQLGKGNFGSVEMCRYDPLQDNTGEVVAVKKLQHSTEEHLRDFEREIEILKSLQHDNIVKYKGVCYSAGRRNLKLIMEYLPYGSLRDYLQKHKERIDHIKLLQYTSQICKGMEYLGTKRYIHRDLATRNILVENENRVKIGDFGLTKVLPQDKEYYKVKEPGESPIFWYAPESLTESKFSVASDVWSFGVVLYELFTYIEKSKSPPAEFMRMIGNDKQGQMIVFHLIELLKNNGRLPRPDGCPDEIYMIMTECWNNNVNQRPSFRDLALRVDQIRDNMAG

Molecules are shown by their SMILES.

As a reminder, the EC50 is the concentration at which the effect is half-maximal. The low end stands for higher potency in that assay, the high end for lower potency in that assay. The IC50 is the concentration that inhibits the measured activity by half.

Experiment [1] addresses T1, Tyrosine-protein kinase JAK3 (Homo sapiens, UniProt P52333).
T1 sequence (P52333 whole entry): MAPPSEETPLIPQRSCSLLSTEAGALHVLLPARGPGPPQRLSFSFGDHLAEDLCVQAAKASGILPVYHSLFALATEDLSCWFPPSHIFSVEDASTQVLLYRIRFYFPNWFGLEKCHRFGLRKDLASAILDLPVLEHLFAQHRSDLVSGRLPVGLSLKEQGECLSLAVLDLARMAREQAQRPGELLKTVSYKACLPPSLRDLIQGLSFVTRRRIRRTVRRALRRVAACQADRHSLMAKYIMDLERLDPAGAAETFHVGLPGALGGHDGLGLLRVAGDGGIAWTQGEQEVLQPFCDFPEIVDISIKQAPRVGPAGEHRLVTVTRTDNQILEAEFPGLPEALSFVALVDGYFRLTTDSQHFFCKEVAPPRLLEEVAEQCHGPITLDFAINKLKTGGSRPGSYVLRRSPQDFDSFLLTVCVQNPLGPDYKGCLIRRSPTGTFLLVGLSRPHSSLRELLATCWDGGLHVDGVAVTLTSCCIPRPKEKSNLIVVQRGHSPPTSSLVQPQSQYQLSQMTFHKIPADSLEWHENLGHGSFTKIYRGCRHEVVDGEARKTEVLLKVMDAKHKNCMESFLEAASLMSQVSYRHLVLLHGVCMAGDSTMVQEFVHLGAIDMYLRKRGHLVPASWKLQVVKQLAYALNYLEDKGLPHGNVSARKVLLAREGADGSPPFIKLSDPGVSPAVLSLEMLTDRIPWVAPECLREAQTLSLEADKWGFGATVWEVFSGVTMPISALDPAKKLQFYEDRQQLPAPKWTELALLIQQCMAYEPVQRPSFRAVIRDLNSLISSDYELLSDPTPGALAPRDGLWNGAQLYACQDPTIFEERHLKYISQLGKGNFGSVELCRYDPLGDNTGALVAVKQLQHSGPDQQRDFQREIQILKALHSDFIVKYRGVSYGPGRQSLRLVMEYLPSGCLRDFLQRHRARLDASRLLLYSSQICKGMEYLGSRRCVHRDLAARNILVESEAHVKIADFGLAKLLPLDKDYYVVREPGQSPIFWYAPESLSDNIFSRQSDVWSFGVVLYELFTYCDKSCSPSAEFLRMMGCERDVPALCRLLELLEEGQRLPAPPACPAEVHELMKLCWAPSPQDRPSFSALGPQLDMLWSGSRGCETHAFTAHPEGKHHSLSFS

For experiment [2], the target named is T1, Tyrosine-protein kinase JAK3. The source holds these as a separate data set.
The target is the same in experiment [3]. The experiment in a line: Inhibition of human JAK3 using GEEEEYFELVKKKK as substrate in presence of 200 uM [gamma33P]ATP by radiometric method.
The target in experiment [4] is Tyrosine-protein kinase JAK2 (Homo sapiens, UniProt O60674).

As to `CN(C)C(=O)C(C#N)=Cc1ccc(-c2nc3cnc4[nH]ccc4c3n2C2CCCCC2)o1`, the EC50 in experiment [1] worked out at 237 nM. In addition, the results for the IC50 in experiment [2] and in experiment [3] were 9 nM and 2 nM, respectively.

As to `CC(C)(O)C(=O)N1CCN(c2ccc(C(F)(F)F)c(C3=C(c4c[nH]c5ccccc45)C(=O)NC3=O)c2)CC1`, 578 nM corresponded to half-maximal inhibition in experiment [4] (IC50).
